From patent publication US6794154B1, “Remedies for kidney diseases and method for screening the same” (Tanabe Seiyaku Co., Ltd., priority 1999, dated 2004)
At least one compound was matched to its structure with a doubt left.

System: L-FABP mRNA in human urinary exfoliated cells (human renal tubular epithelial cells)
Assay: L-FABP up-regulating activity at mRNA level (RT-PCR) in human urinary exfoliated cells
Assay type: cell-based
Details: 10 μM (Table 1)
Method: Renal tubular epithelial cells exfoliated from kidney tissues into urine (hereafter, referred to as “urinary exfoliated cell”) were isolated from human urine sample and cultured in the following manner. Firstly, urine samples from male infant nephritis patients (0-3 years old) were collected using the clean-catch method. The urine samples were then centrifuged (1000 rpm, 10 minutes) at room temperature and the supernatant was discarded. The pellet was washed with 10% (v/v) fetal calf serum-containing Dulbecco's modified Eagle's medium twice and then with culture medium once. The culture medium used herein was a mixture (1:1) of Dulbecco's modified Eagle's medium and Ham's F-12 medium, to which mixture was added fetal calf serum (10% v/v), insulin (5 μg/ml), transferrin (5 μg/ml), sodium selenite (5 ng/ml), dexamethasone (10^−8 M), nicotinamide (5 mM), penicillin (100 IU/ml) and streptomycin (100 μg/ml). The pellet was suspended into the culture medium, diluted appropriately and then cultured in collagen type 4-coated dish (3.5 cm in diameter, Falcon). The cultivation was performed under the condition of 5% CO2, 37° C. […] Also, in order to normalize the measurement values, rBAT (related to b^0,+ system amino acid transporter; Purroy et. al., Genomics, Vol 37. pp. 249-252, 1996) mRNA was detected as control by RT-PCR.

## CCCc1c(OCCCCCCc2nn[nH]n2)ccc(C(C)=O)c1O [4-THA, 2-hydroxy-3-propyl-4-[6-(tetrazol-5-yl)hexyloxy]acetophenone]
  L-FABP mRNA: +
